Laboratory results as given in PubChem BioAssay AID540256 (National Center for Advancing Translational Sciences (NCATS), 2011).
Hit rate of the full screen: of about 300,000 compounds, about 3,700 (1.2%) were called active. This list was built around the results that the source calls inconclusive (neither active nor inactive); the mix of calls is not that of the screen. Calls come from the whole dose curve; tested in HEK293 cells. A potency beside an inconclusive call is a rough fit, not a confirmed value.

assay: qHTS for Inhibitors of binding or entry into cells for Lassa Virus; settings: Lassa virus pseudotype entry inhibition, cell reporter; activity change, negative = inhibition: at 37.9 µM (top of the series) unless noted; note: nearly all actives have a fitted effect of over 50% in size
% is set by controls: 0 for no effect and ±100 for the full control effect; potency is the fitted concentration of half-maximal effect.

Row | SMILES | Potency | activity change, negative = inhibition
1 | COc1cccc(NC(=O)Cn2nnc(C(=O)NCc3ccc4c(c3)OCO4)c2N)c1 | inconclusive: 3.16 µM [activator, single point] | –
2 | C=CCn1cc(C(=O)NCc2ccc3c(c2)OCO3)c(=O)c2cc(S(=O)(=O)N(CC)CC)ccc21 | active: 0.708 µM | –
3 | CCc1ccc(-c2cc(C)no2)cc1S(=O)(=O)N1CCOc2ccccc21 | inconclusive: 15.8 µM [inhibitor, partial curve, poor fit] | –
4 | Cc1ccsc1C(=O)OCC(=O)NC1CCCC(C)C1C (stereo not drawn) | – | inactive: -1.7%
5 | C/C(CC(=O)Nc1cccc(Cl)c1Cl)=N\NC(=O)C(=O)N1CCCC1 | – | inactive: -0.141%
6 | CCc1nn(CC(=O)NCCc2ccc(OC)c(OC)c2)c(=O)c2cc3occc3n12 | inconclusive: 3.98 µM [activator, partial curve, poor fit] | –
7 | O=C(Nc1ccc(OCC(F)(F)C(F)F)c(C(F)(F)F)c1)c1ccccc1O | inconclusive: 20.6 µM [inhibitor, single point] | –
8 | CCN(CC)CCNC(=O)c1nn(-c2ccc(C)cc2)c(=O)c2c1c1ccccc1n2C | inconclusive: 17.8 µM [inhibitor, single point] | –
9 | CCOC(=O)c1ccc(N/C(=N/S(=O)(=O)c2ccccc2)c2ccccc2)cc1 | inconclusive: 1.26 µM [activator, single point] | –
10 | CCCCn1c(NCc2ccc3c(c2)OCO3)nc2ccccc21 | inconclusive: 12.6 µM [activator, single point] | –
11 | COc1ccc(C(=O)Nc2ccnn2C2CCN(CCC(C)c3ccc(C)o3)CC2)cc1 (stereo not drawn) | – | inactive: -15.5%
12 | CC1C(O)=C(c2nc3ccccc3[nH]2)C(=N)N1c1ccccc1 (stereo not drawn) | – | inactive: -1.45%
13 | Oc1ccc(N=Nc2n[nH]c(-c3ccc(Br)cc3)n2)cc1 | inconclusive: 28.2 µM [inhibitor, partial curve, poor fit] | –
14 | CC1(C)OC(=O)N(CCc2ccccc2)C1(C)O (stereo not drawn) | – | inactive: -6.07%
15 | COc1ccc(NC(=O)c2cccn2-c2nnc(N3CCCCC3)s2)c(OC)c1 | – | inactive: 11.7% [at 46.1 µM]
16 | COc1cccc(NC(=S)N(CCc2c(C)[nH]c3ccccc23)Cc2cccs2)c1 | inconclusive: 20.6 µM [inhibitor, single point] | –
17 | CS(=O)(=O)Nc1ccc(-c2nc3ccccc3s2)cc1 | inconclusive: 25.1 µM [activator, partial curve, poor fit] | –
18 | COCCCn1c(SCc2cccc(OC)c2)nc2cc(OC)c(OC)cc2c1=N | inconclusive: 32.6 µM [inhibitor, single point] | –
19 | OCC1CCCN(c2nc(CN3CCCCC3)nc3scc(-c4ccccc4)c23)C1 (stereo not drawn) | inconclusive: 23.1 µM [inhibitor, single point] | –
20 | CCOC(=O)C[n+]1ccc2c([nH]c3ccccc32)c1C | inconclusive: 1.26 µM [inhibitor, single point] | –
21 | COc1ccc(-c2nn(-c3ccc(C)c(Cl)c3)c3c2cnc2cc(OC)c(OC)cc23)cc1 | – | inactive: 15.1% [at 46.1 µM]
22 | Cc1ccc(S(=O)(=O)Cn2nnnc2CN2CCN(Cc3ccc4c(c3)OCO4)CC2)cc1 | inconclusive: 32.6 µM [inhibitor, single point] | –

2 of the compounds above, as tab-separated lines.
Row	SMILES	Potency	activity change, negative = inhibition
16	COc1cccc(NC(=S)N(CCc2c(C)[nH]c3ccccc23)Cc2cccs2)c1	inconclusive: 20.6 µM [inhibitor, single point]	–
20	CCOC(=O)C[n+]1ccc2c([nH]c3ccccc32)c1C	inconclusive: 1.26 µM [inhibitor, single point]	–

More entries follow:

Row | SMILES | Potency | activity change, negative = inhibition
23 | C=CCn1c(COc2ccc(Cl)cc2)nnc1SCC(=O)Nc1ccc(S(N)(=O)=O)cc1 | inconclusive: 1.41 µM [inhibitor, partial curve, poor fit] | –
24 | Cc1ccc(C(=O)NCC(=O)NCC(=O)OCc2ccc(Cl)cc2)cc1 | – | inactive: 15.3%
25 | COc1ccc(S(=O)(=O)NCCc2csc(-c3cccc(F)c3)n2)cc1OC | – | inactive: 12.2% [at 46.1 µM]
26 | O=C(/C=C/c1c[nH]c2ccccc12)c1c(O)n(CCc2ccccc2)c(=O)[nH]c1=O | inconclusive: 0.794 µM [inhibitor, full curve, poor fit] | –
27 | CC(C)c1ccc(NC(=S)N2CCCC(c3ccc(F)cc3)=N2)cc1 | – | inactive: -23.9% [at 46.1 µM]
28 | CCCOc1c(Br)cc(C2C3=C(CCCC3=O)N(CC)C3=C2C(=O)CCC3)cc1OC | inconclusive: 35.5 µM [inhibitor, single point] | –
29 | COc1ccc(NC(=O)C2CCCN(S(=O)(=O)c3c(C)[nH]c(=O)[nH]c3=O)C2)cc1 (stereo not drawn) | inconclusive: 1 µM [activator, full curve, poor fit] | –
30 | COc1cccc(NC(=O)CN(C)C(=O)c2ccccc2CCc2ccccc2)c1 | inconclusive: 14.1 µM [inhibitor, single point] | –
31 | CCCCOc1ccc(CNC(=O)CN2C(=O)CCn3nc(-c4cn(C)c5ccccc45)cc32)cc1 | inconclusive: 35.5 µM [activator, single point] | –
32 | CC(C)CC1NC(=O)N(Cc2nc3ccccc3s2)C1=O (stereo not drawn) | – | inactive: 12.9%
33 | CSC(=N)N | – | inactive: 7.04%
34 | CCn1nnnc1NCc1ccc(OCc2ccc(F)cc2Cl)c(OC)c1 | inconclusive: 14.1 µM [inhibitor, single point] | –
35 | O=C(O)C1CC(O)CN1S(=O)(=O)c1ccc2ccccc2c1 (stereo not drawn) | inconclusive: 3.55 µM [inhibitor, single point] | –
36 | Fc1ccc(Oc2nccc(-c3ccc(Cl)cc3)n2)cc1 | inconclusive: 11.2 µM [activator, single point] | –
37 | COc1ccc(NS(=O)(=O)c2cccc(C(=O)NNC(=O)CNC(=O)c3ccc(C)cc3)c2)cc1 | – | inactive: -1.25%
38 | Cc1cccc(OCC(O)Cn2c(=N)n(CCN3CCOCC3)c3ccccc32)c1 (stereo not drawn) | inconclusive: 0.058 µM [activator, full curve, poor fit] | –
39 | CCOc1ccc2[nH]c(=O)c(CN(CC3COCCO3)C(=O)C3CC3)cc2c1 (stereo not drawn) | – | inconclusive: 17.1% [activator]
40 | O=C(CSc1ncn[nH]1)Nc1ccccc1Sc1ccc(Cl)cc1 | inconclusive: 35.5 µM [inhibitor, single point] | –
41 | CCCCNC(=O)CCn1nc(-c2ccc(Cl)cc2)c2ccccc2c1=O | inconclusive: 11.2 µM [activator, partial curve, poor fit] | –
42 | O=C(Nc1cccc2cccnc12)c1ccc2c(c1)OCCO2 | inconclusive: 5.17 µM [activator, full curve, poor fit] | –
43 | COc1ccccc1/C=C/C=N/NC(=O)c1ccccn1 | inconclusive: 6.31 µM [inhibitor, partial curve, poor fit] | –
